Values of other authors, collected in patent US8598228B2, “Cinnamic acid ascorbates” (Merck Patent GmbH, priority 2009, dated 2013).
At least one structure is not confirmed: it was looked up by name or label, or the drawing left a doubt.

Settings: UV irradiation in solution or in the cosmetic; cited from earlier work

Structure (SMILES): CCCCC(CC)COC(=O)C=Cc1ccc(OC)cc1 (centres unmarked) [B, ethylhexyl 4-methoxycinnamate]
- proportion of the cis isomer (photoisomer) formed: 60-40
- proportion of the trans isomer in photostationary equilibrium: 40-60%
